This passage reports log2 fold change results from the supplement of paper PMC10849652.

Chains of the proteins cited; added tags and fusions are not shown. Lines headed by an entry give the natural chain unless they say otherwise; changes in a name come on top.
UniProt Q8IVF7, whole entry, looked up: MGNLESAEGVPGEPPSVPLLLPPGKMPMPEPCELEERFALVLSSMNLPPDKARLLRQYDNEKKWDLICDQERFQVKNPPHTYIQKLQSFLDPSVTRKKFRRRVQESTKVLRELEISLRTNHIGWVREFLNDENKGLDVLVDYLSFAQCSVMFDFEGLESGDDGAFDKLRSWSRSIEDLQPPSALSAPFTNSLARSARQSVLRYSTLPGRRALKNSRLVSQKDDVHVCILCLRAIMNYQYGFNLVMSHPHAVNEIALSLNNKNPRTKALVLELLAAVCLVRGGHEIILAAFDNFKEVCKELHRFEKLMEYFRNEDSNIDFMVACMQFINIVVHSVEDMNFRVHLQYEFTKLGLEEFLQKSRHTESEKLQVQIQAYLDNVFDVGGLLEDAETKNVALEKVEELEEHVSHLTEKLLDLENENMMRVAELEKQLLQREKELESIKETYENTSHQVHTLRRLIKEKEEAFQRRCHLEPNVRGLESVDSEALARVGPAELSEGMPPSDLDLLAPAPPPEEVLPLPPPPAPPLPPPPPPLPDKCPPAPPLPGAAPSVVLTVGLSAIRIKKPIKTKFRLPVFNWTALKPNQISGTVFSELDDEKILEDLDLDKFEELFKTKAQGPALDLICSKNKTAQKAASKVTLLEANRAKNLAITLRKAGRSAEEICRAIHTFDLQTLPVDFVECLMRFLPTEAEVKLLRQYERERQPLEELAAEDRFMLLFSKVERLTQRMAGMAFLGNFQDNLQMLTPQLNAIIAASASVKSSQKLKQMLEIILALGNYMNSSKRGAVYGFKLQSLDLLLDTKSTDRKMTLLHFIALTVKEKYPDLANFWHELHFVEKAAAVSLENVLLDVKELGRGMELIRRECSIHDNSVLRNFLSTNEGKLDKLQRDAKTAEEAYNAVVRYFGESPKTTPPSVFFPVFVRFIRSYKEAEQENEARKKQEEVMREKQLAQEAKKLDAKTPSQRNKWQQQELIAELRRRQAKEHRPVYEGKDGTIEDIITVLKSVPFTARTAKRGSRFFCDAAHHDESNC
UniProt Q9H469: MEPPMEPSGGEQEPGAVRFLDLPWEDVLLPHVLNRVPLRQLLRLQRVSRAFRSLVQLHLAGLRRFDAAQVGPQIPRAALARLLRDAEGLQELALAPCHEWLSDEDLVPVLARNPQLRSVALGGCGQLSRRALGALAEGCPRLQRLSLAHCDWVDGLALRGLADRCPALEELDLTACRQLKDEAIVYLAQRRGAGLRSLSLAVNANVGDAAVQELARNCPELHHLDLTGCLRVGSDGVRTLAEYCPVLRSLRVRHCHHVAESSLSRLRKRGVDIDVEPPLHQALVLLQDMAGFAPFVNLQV
UniProt Q9H4M3: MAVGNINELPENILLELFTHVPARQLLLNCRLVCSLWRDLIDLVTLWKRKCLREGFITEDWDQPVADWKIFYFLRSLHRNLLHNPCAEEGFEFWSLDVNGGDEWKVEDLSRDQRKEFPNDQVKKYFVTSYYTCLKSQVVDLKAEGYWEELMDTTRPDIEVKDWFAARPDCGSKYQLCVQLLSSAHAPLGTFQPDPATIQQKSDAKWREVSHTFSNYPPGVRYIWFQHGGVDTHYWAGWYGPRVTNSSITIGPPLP
UniProt Q9BSK4: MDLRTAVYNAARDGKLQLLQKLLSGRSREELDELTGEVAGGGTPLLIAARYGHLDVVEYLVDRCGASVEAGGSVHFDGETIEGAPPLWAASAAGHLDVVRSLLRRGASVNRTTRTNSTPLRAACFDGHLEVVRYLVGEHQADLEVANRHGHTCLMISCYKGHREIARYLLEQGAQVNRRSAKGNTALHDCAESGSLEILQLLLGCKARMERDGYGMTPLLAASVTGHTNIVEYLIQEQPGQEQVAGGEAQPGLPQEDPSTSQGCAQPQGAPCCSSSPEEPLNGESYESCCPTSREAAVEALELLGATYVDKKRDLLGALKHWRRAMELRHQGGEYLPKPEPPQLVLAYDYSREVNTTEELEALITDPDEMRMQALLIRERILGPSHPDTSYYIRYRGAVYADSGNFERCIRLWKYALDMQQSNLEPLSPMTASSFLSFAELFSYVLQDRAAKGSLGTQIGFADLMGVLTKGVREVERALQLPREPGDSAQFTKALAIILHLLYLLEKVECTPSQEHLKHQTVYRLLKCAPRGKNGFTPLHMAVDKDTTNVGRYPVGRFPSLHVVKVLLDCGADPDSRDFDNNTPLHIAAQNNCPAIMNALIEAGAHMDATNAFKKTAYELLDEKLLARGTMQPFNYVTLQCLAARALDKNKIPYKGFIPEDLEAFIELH
UniProt Q8N6M3: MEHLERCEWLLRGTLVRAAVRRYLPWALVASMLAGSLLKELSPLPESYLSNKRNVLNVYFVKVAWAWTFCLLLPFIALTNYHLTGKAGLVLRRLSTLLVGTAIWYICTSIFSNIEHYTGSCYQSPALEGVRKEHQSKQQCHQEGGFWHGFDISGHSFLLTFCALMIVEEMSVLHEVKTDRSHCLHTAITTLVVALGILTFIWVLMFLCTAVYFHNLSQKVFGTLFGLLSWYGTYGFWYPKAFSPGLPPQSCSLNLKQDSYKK
UniProt Q92913: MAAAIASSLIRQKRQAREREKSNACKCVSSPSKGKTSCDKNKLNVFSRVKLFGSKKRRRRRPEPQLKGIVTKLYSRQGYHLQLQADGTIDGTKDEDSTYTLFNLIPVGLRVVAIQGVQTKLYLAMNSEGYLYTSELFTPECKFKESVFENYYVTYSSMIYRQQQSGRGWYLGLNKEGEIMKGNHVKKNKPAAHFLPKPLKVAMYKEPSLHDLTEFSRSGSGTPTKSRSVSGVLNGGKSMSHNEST
UniProt P23142: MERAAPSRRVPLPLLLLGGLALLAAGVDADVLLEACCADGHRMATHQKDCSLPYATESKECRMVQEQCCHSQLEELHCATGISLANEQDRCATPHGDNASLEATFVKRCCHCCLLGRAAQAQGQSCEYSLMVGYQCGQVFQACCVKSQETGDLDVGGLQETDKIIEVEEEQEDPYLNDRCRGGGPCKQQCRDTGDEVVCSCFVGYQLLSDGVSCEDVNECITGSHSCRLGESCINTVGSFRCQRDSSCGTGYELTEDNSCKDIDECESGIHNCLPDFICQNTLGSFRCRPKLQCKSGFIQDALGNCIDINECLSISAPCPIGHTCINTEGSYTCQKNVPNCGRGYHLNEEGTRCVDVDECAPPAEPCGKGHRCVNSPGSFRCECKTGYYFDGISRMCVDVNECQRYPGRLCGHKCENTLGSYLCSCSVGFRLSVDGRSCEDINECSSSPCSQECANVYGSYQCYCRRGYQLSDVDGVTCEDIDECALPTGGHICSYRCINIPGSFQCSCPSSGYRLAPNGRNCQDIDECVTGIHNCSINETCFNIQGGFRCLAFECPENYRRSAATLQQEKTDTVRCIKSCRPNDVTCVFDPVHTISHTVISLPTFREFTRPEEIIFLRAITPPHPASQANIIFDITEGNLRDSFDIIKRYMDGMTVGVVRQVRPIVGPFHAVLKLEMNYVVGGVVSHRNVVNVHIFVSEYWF
UniProt Q53R41: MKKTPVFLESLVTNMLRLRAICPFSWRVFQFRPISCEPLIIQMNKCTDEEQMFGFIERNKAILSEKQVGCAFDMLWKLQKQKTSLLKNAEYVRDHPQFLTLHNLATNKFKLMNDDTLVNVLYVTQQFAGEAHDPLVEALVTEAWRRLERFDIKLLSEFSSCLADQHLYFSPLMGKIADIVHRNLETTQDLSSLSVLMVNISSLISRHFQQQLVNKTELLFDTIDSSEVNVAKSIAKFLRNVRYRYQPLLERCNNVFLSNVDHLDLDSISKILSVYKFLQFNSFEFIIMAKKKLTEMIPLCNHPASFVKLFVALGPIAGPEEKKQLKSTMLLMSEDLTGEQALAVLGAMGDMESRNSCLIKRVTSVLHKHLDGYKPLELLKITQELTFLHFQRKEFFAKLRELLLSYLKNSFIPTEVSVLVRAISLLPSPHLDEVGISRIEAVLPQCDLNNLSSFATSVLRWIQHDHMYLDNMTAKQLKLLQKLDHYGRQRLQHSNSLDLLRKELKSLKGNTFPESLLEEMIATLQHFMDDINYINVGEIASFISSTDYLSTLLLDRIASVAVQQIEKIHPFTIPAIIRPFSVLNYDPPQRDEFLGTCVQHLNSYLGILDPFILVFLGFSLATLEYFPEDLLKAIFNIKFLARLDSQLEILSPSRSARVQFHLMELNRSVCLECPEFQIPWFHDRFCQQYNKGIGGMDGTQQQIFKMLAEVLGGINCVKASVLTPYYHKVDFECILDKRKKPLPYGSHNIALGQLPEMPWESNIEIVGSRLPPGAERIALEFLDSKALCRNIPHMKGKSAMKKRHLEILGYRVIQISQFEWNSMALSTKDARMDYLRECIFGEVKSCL
UniProt Q96SL8: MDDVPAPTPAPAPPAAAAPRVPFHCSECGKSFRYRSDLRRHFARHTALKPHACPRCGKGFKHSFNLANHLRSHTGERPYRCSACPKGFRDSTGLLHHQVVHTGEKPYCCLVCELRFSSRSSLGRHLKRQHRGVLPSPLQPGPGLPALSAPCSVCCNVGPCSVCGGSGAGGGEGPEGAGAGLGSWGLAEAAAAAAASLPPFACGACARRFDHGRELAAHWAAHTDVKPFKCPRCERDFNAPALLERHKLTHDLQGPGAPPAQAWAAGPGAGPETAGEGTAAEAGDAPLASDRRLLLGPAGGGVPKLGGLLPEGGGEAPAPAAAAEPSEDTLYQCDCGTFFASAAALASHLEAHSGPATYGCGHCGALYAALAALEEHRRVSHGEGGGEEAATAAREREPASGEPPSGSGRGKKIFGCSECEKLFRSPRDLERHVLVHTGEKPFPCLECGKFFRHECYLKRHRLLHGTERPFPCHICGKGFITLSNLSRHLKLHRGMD
UniProt Q658Y4: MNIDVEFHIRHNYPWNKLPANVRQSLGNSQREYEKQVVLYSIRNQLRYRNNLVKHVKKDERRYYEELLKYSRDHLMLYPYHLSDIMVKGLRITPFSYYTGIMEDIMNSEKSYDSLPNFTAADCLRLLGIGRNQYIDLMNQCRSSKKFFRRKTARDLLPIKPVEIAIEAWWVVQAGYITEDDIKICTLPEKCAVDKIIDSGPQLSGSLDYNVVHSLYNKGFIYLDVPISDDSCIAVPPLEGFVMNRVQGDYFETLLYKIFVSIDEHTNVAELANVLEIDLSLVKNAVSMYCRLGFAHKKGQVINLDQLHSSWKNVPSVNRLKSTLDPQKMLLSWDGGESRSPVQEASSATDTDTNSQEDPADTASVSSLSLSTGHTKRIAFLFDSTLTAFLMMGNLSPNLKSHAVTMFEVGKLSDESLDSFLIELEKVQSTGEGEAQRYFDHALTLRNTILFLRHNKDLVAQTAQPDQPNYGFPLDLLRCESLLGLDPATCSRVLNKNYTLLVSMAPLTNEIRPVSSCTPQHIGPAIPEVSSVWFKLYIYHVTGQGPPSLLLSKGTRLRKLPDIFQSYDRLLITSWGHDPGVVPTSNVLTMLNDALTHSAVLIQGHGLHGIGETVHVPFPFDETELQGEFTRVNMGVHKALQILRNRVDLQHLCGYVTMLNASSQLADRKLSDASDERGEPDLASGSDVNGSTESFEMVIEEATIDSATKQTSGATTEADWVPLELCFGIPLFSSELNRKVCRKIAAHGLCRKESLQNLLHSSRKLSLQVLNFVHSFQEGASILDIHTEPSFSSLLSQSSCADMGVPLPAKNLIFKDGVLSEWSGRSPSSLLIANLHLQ
UniProt O95363: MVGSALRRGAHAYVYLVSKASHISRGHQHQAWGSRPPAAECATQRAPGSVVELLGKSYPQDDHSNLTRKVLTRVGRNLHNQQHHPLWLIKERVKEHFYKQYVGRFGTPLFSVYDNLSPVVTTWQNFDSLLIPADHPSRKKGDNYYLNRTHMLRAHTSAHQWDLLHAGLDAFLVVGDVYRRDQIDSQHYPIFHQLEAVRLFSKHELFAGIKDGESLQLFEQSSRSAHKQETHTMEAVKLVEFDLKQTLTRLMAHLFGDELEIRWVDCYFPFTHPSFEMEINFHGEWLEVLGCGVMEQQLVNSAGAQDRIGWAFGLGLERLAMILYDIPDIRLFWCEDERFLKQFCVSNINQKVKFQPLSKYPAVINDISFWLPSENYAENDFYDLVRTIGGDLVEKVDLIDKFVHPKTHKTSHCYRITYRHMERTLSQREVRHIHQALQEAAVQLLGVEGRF
UniProt Q9UKT8: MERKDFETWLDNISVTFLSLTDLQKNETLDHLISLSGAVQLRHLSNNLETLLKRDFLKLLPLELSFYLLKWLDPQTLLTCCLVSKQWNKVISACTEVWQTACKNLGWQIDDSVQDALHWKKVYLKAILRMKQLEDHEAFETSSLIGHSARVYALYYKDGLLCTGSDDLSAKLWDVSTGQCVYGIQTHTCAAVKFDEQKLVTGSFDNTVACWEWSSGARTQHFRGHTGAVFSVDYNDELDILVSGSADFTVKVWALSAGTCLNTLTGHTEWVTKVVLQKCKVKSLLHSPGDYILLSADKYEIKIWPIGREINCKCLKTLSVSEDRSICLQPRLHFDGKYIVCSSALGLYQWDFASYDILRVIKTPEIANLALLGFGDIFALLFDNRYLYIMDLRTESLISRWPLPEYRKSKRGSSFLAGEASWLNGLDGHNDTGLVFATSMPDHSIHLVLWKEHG

What all share (experiment): log2 fold change, soluble protein after heating vs DMSO (PISA); higher = thermal stabilisation; K562 lysate, 10 uM; active = over 0.2 and 3.5 SD of the protein, either way, in both replicates (recomputed)
Compound in experiment [1]: CCCS(=O)(=O)Nc1ccc(F)c(C(=O)c2c[nH]c3ncc(Cl)cc23)c1F
In outline: (§1)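 The values are log-two fold changes in thermal stability compared with solvent controls and come from duplicates. They were obtained by TMTpro 16plex LC-MS/MS, with channel sums equalised, on the supernatant after 21,000xg for 90 min. That supernatant came from crude K562 extract at 1 mg/mL protein treated with 10 μM compound for 30 min, heated for 3 min across 48°C-58°C, pooled and brought to 0.5% NP-40 at 4°C.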

Compound in the next experiment: CCN(CCCOc1ccc2c(Nc3cc(CC(=O)Nc4cccc(F)c4)[nH]n3)ncnc2c1)CCOP(=O)(O)O [barasertib]
The method in brief: as §1

Compound in the next experiment: CC[C@@H]1C(=O)N(C)c2cnc(Nc3ccc(C(=O)N[C@H]4CC[C@H](N5CCN(CC6CC6)CC5)CC4)cc3OC)nc2N1C(C)C [volasertib]
The method in brief: as §1

Compound in another experiment: CCCS(=O)(=O)Nc1ccc(F)c(C(=O)c2c[nH]c3ncc(-c4ccc(Cl)cc4)cc23)c1F [vemurafenib]
The method in brief: as §1

Compound in experiment [2]: CC[C@@H]1C(=O)N(C)c2cnc(Nc3ccc(C(=O)NC4CCN(C)CC4)cc3OC)nc2N1C1CCCC1
The method in brief:
as §1

Compound in experiment [3]: CCn1c(C(=O)N(C2CC2)C2CC2)cc2c3c(ncn3C)c(Nc3cc(C)n(C)n3)nc21
The method in brief:
as §1

Compound in experiment [4]: CCn1cc(-c2ccnc3[nH]c(-c4cccc(CN(C)C)c4)cc23)c(-c2ccc(NC(=O)N(C)C)cc2)n1
The method in brief: as §1

Compound in experiment [5]: CN1CCC(CNc2ccc3ncc(-c4cccc(OC(F)(F)F)c4)n3n2)CC1
The method in brief:
as §1

Compound in another experiment: CN1CCN(CCOc2cc(OC3CCOCC3)c3c(Nc4c(Cl)ccc5c4OCO5)ncnc3c2)CC1 [saracatinib]
The method in brief:
as §1

Compound in the next experiment: CN1CCN(c2nc(C3=C(c4c[nH]c5ccccc45)C(=O)NC3=O)c3ccccc3n2)CC1 [sotrastaurin]
The method in brief: as §1

The list shows a part of the results.

Take FMNL3 (UniProt Q8IVF7): the results for the log2 fold change (in experiment [1]; with barasertib; with volasertib) were inactive: 0.155, inactive: 0.034 and inactive: 0.102, respectively.
For the target FBXL15 (UniProt Q9H469), the log2 fold change with vemurafenib was inactive: -0.015; in experiment [2] it was inactive: -0.023; in experiment [3], inactive: 0.03; in [4], inactive: -0.019; in [5], inactive: 0.02; with saracatinib it was inactive: 0.071. Moreover, the log2 fold change in the experiment with sotrastaurin was inactive: -0.067.
With FBXO44 isoform 2 (UniProt Q9H4M3), the log2 fold change is inactive: 0.14 in the experiment with vemurafenib; inactive: 0.066 in [1]; inactive: 0.054 with barasertib; inactive: 0.003 with volasertib; inactive: -0.066 in [3]; inactive: -0.031 in experiment [4]. The values for the log2 fold change (in [5]; with saracatinib) were inactive: 0.034 and inactive: 0.215, respectively.
Regarding FARP2 (UniProt H7C3M7), the log2 fold change with vemurafenib was inactive: 0.094; in experiment [2], inactive: -0.007; in experiment [3], inactive: -0.043; in experiment [4] it was inactive: 0.136; in experiment [5], inactive: -0.063; in the experiment with saracatinib it was inactive: 0.101. In addition, the log2 fold change with sotrastaurin was inactive: -0.046.
Regarding FEM1A (UniProt Q9BSK4), the log2 fold change with vemurafenib was inactive: 0.071; in experiment [1], inactive: -0.002; in [2], inactive: -0.398; with volasertib, inactive: 0.011; in [3], inactive: 0.175.
Take FANCD2 isoform 1 (UniProt Q9BXW9): the log2 fold change with vemurafenib was inactive: 0.067; in experiment [1], inactive: 0.053; with barasertib, inactive: 0.04; in [2], inactive: 0.14; with volasertib, inactive: -0.045; in [3] it was inactive: 0.017. For the same target, the log2 fold change in [4] is inactive: -0.135; in [5] it was inactive: 0.02; with saracatinib, inactive: 0.016; with sotrastaurin, inactive: -0.029.
Take FITM2 (UniProt Q8N6M3): the log2 fold change was inactive: -0.042 in [1], inactive: 0.059 in the experiment with barasertib and inactive: -0.039 with volasertib.
Take FGF13 isoform 3 (UniProt Q92913): the log2 fold change was inactive: 0.047 in [1]; inactive: 0.105 with barasertib; inactive: 0.02 in [2]; inactive: -0.018 with volasertib; inactive: -0.049 in [3]; inactive: -0.182 in experiment [4]. For the same target, the results for the log2 fold change (in experiment [5]; with saracatinib; in the experiment with sotrastaurin) were inactive: 0.117, inactive: 0.062 and inactive: 0.036, respectively.
On to FBLN1 (UniProt P23142), for which the log2 fold change with vemurafenib is inactive: 0.056; in the experiment with barasertib, inactive: 0.029; in [3], inactive: 0.032; in experiment [4], inactive: 0.028; in [5] it was inactive: 0.194; in the experiment with sotrastaurin, inactive: 0.104.
For the target FASTKD1 (UniProt Q53R41), the log2 fold change with vemurafenib was inactive: 0.025; in experiment [2], inactive: -0.069; in experiment [3], inactive: 0.021; in experiment [4], inactive: 0.024; in [5] it was inactive: 0.085; with saracatinib, inactive: 0.04. Besides, in the experiment with sotrastaurin, the log2 fold change is inactive: 0.
Turning to FIZ1 (UniProt Q96SL8), the log2 fold change was inactive: 0 in experiment [1]; inactive: -0.021 with barasertib; inactive: -0.169 with volasertib; inactive: -0.132 in [3]; inactive: -0.135 in [4]; inactive: -0.002 in experiment [5].
Take FAT2 (UniProt Q9NYQ8): the log2 fold change with vemurafenib is inactive: 0.213; in experiment [1], inactive: 0.19; with barasertib, inactive: -0.001; in experiment [2], inactive: 0.016; with volasertib, inactive: -0.097; in experiment [3], inactive: 0.089. Moreover, the log2 fold change was inactive: -0.487 in [4], inactive: 0.248 in [5] and inactive: 0.125 in the experiment with sotrastaurin.
As for FEN1 (UniProt I3L3E9), the log2 fold change in the experiment with vemurafenib was inactive: -0.075; in experiment [1], inactive: -0.077; in [2], inactive: -0.136; with volasertib it was inactive: -0.132; in experiment [3], inactive: -0.004; in experiment [4], inactive: 0.052. The log2 fold change in [5] is inactive: 0.033.
Turning to FAM91A1 (UniProt Q658Y4), the log2 fold change in the experiment with vemurafenib was inactive: -0.005; in [1], inactive: 0.031; with barasertib, inactive: -0.042; in experiment [2], inactive: -0.006; with volasertib it was inactive: -0.023; in experiment [3] it was inactive: -0.064. Besides, the log2 fold change in experiment [4] was inactive: 0.047; in experiment [5] it was inactive: -0.035; with saracatinib it was inactive: 0.008; with sotrastaurin it was inactive: 0.053.
With FARS2 (UniProt O95363), the log2 fold change is inactive: 0.126 with vemurafenib; inactive: 0.126 in experiment [1]; inactive: 0.044 with barasertib; inactive: -0.114 in [2]; inactive: 0.108 with volasertib; inactive: -0.101 in experiment [3]. Also, the log2 fold change in experiment [4] is inactive: -0.408; in experiment [5] it was inactive: 0.006; with sotrastaurin, inactive: 0.004.
On to FBXW2 (UniProt Q9UKT8), for which the log2 fold change was inactive: -0.065 with vemurafenib; inactive: -0.039 with barasertib; inactive: 0.012 in experiment [3]; inactive: -0.026 in experiment [4]; inactive: 0.002 in experiment [5]; inactive: -0.087 in the experiment with saracatinib. In the experiment with sotrastaurin, the log2 fold change is inactive: 0.102.
With FLNA (UniProt H0Y5C6), the log2 fold change was inactive: -0.198 with vemurafenib, inactive: -0.004 in experiment [1], inactive: -0.095 with volasertib and inactive: 0.034 in the experiment with saracatinib.
For the target FIBP (UniProt O43427), the log2 fold change in the experiment with vemurafenib is inactive: -0.011; in experiment [1] it was inactive: 0.041; with barasertib, inactive: 0.105; in experiment [2], active: -0.236; with volasertib it was inactive: -0.013; in [3], inactive: -0.001. Further, the log2 fold change in experiment [4] is inactive: -0.028; in experiment [5], inactive: -0.021; in the experiment with saracatinib it was inactive: 0.039; with sotrastaurin, inactive: 0.008.
